This assay concerns the target SBP-p62 (human) (UniProt Q9UJW0). The experiment in a line: pull-down.

The chains behind the UniProt entries cited, without tags or fusion partners. Where a name states a change or a piece, a line headed by the entry shows the natural chain unless it says otherwise. A line that says so, or that is headed by a name, gives the form on record, which may keep a tag or linker.
SBP-p62 (Q9UJW0, form named): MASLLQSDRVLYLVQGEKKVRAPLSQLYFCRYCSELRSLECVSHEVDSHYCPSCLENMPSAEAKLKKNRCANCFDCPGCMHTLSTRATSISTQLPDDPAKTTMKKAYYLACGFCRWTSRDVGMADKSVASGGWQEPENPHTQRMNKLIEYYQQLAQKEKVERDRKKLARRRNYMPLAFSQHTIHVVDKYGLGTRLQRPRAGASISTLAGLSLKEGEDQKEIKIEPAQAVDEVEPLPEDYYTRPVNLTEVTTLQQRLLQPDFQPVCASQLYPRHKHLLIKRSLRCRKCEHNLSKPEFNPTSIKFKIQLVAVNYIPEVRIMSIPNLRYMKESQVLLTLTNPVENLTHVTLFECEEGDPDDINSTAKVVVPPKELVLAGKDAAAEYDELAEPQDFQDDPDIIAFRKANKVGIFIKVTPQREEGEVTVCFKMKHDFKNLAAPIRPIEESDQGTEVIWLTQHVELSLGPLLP
p50 (endogenous dynactin subunit) (Q13561-2, form named): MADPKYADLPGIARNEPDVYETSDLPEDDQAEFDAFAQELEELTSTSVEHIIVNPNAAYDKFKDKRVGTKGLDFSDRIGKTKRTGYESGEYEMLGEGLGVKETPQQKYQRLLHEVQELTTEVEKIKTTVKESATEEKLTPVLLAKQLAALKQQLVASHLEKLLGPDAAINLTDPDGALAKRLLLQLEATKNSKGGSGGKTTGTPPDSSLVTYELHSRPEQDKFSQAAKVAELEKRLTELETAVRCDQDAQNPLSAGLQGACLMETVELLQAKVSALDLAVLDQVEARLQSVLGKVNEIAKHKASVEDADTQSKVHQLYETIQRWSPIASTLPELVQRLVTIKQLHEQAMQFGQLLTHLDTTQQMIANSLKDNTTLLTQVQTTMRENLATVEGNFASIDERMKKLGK

No constants are given. Whether binding was seen depends on the method and setting. Binding seen in cells or lysates may run through a third protein. Some results given as binding are weak or reduced against the parent protein; the word gives no strength.

With “p50 (endogenous dynactin subunit) (from UniProt Q13561-2 1-406)”, the binding entry is given as “binds”.

The values above are taken from doi:10.1101/459040.
